Source: article PMC6185973
Results are given in words; binding and its absence hold for the method and conditions named. Binding seen in cells or lysates may run through a third protein. Some results given as binding are weak or reduced against the parent protein; the word gives no strength. Tags and fused reporters may be left off the sequences shown.

Sequences of proteins named here, by UniProt entry; tags and fusion partners are left off.
UniProt Q13535: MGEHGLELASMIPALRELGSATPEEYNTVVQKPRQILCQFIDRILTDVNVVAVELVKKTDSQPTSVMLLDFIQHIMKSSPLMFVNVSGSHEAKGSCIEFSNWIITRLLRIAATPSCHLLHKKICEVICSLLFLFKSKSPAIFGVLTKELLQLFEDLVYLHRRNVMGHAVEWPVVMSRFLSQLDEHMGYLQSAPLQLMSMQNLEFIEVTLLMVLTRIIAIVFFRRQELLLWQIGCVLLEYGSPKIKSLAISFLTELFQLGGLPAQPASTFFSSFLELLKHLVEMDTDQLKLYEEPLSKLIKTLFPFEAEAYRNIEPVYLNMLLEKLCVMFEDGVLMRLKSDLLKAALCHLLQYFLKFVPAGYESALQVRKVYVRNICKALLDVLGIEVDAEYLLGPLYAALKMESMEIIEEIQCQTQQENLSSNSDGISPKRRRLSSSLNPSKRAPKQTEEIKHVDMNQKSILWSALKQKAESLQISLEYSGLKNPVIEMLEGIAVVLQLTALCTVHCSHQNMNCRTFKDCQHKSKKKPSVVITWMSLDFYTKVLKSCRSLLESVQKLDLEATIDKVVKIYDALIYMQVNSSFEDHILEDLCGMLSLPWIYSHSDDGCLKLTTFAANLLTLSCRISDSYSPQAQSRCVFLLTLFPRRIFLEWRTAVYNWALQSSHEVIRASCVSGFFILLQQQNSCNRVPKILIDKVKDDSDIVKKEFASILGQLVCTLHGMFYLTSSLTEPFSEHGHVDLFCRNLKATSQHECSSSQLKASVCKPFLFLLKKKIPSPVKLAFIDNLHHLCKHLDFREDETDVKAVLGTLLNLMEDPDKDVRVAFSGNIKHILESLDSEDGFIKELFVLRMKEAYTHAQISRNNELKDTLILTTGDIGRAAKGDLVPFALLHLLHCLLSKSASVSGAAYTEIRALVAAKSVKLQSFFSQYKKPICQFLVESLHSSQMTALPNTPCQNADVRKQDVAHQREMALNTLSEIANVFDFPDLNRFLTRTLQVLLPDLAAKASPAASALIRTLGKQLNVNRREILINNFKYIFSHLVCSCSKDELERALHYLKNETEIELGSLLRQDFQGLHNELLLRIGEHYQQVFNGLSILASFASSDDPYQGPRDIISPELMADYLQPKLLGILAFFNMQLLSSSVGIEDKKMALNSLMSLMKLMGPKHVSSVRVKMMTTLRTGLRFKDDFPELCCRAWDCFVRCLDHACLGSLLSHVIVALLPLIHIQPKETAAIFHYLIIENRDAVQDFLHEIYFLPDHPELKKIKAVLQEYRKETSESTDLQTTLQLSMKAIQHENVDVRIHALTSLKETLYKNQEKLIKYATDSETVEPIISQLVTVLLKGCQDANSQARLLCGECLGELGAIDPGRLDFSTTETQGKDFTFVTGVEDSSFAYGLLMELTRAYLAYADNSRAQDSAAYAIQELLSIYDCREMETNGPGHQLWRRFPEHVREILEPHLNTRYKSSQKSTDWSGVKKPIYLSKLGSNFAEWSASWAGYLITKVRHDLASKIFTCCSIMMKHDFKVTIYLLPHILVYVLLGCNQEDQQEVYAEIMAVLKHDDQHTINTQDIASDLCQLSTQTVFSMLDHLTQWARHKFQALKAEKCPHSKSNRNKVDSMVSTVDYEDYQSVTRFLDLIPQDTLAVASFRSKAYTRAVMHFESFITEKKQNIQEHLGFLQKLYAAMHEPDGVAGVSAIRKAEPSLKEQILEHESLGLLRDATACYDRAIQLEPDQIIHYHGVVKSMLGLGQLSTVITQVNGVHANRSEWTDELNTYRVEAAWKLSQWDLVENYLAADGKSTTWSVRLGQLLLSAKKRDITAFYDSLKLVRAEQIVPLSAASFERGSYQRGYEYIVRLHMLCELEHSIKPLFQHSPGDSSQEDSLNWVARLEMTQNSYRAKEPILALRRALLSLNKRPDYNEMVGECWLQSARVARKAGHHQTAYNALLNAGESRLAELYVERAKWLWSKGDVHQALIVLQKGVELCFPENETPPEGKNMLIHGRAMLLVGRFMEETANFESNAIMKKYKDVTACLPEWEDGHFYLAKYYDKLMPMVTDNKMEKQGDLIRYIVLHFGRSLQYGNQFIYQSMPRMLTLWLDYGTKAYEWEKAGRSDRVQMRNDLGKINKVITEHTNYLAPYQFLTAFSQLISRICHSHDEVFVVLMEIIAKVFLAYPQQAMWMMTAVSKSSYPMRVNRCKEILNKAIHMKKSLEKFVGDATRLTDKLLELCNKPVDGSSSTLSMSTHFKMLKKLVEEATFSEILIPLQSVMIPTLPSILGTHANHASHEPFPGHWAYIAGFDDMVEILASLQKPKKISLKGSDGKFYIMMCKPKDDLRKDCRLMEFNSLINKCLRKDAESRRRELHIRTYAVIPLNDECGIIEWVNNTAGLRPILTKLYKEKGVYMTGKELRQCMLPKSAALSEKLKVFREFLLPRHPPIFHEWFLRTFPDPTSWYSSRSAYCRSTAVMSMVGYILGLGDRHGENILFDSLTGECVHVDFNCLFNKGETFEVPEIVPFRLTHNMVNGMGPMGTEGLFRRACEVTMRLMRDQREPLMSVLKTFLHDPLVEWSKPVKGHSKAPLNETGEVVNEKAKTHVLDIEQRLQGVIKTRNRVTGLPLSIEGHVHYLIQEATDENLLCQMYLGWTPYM

Target: T1, PLK4-FLAG (UniProt O00444)
T1 sequence: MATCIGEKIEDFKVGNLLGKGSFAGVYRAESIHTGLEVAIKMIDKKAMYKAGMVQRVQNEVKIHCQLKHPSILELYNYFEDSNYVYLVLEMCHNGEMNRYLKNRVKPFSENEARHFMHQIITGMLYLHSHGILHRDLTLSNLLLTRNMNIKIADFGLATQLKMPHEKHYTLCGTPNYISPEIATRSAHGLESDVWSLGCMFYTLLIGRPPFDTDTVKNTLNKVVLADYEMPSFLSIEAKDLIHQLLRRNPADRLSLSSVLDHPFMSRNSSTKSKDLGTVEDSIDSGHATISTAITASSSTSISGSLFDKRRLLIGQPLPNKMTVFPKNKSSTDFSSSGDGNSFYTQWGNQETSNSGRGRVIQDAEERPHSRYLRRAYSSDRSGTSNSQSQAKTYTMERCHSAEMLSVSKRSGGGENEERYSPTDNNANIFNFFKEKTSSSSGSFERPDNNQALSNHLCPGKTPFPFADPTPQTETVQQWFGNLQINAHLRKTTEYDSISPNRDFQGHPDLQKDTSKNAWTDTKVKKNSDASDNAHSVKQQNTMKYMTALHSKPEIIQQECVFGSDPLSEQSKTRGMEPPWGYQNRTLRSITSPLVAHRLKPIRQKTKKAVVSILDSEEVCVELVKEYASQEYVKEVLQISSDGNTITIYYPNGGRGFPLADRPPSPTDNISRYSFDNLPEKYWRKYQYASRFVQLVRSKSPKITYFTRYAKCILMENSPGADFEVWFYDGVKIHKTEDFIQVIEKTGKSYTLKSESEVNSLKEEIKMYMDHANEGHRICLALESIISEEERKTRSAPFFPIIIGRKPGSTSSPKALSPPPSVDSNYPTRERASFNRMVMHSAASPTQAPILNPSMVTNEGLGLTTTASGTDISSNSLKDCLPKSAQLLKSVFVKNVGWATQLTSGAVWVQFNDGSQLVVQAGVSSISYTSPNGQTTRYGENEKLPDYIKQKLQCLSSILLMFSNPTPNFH
Test: co-IP; Hep3B cells expressing PLK4-FLAG and ATR-GFP; lysate precleared with sepharose beads 2 h at 4 °C, incubated overnight with anti-FLAG antibody, washed three times with 0.5% NP40 cell lysate; ATR-GFP detected by immunoblot with anti-GFP antibody

binding: binds
Substance: ATR-GFP (from UniProt Q13535 1-2644)
